Positions count from the first letter of the chain named. These are yes or no findings as the source states them, for the method shown. Some binding calls cover weakened binding; strength is not graded here.

By UniProt entry, the sequences of proteins in these tests, tags left out. Where a name states a change or a piece, a line headed by the entry shows the natural chain unless it says otherwise.
UniProt P04629: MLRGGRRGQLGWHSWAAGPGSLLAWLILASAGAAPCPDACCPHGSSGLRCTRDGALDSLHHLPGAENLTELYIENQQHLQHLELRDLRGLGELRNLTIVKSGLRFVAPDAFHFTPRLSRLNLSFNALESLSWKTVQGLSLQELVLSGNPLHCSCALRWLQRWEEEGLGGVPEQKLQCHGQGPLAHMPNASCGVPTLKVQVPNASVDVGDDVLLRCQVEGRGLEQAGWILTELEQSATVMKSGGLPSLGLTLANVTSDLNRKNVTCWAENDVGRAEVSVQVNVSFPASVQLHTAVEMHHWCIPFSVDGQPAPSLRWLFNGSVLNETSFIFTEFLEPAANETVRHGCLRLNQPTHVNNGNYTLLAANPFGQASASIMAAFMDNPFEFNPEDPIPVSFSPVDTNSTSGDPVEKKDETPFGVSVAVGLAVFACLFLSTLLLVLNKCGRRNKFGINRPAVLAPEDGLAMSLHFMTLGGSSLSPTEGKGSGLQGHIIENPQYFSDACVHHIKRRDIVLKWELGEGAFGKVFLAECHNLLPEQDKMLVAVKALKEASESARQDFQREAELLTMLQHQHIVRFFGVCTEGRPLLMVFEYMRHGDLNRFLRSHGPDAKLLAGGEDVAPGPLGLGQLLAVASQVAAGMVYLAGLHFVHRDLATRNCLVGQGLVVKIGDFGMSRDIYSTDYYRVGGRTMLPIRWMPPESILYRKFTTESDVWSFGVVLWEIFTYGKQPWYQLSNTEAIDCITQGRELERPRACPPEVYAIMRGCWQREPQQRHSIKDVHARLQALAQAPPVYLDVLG

In experiment [1] the target is T1, human TrkA receptor on the cell surface (human, UniProt P04629 33-796). Description: flow cytometry on TF-1 cells.
The target of experiment [2] is T2, TrkA-IgG (UniProt P04629 33-423, limits assumed).
T2 construct: also called specific antigen TrkA-IgG; not shown: IgG part of the fusion
Nature of the experiment: ELISA, TrkA-IgG coated at 1 µg/ml, COS-7 supernatant at 5 ng/ml antibody, HRP-labelled secondary antibody, OD450/630 nm. (In general: In an ELISA, binding on a coated surface is turned into a signal by an enzyme label.)

Experiment [3] has as its target T1, human TrkA receptor on the cell surface. Description: flow cytometry on TF-1 cells (FIG. 4). In general terms: Flow cytometry measures light scatter and fluorescence of single cells or particles in a stream.
Experiment [4] shares this target. Nature of the experiment: flow cytometry on TF-1 cells, two separate experiments (FIG. 4).
Experiment [5] has the same target. Description: flow cytometry on TF-1 cells, PE-labelled secondary antibody, two experiments.
Experiment [6] addresses TrkA-IgG (UniProt P04629). Description: ELISA, TrkA-IgG coated at 1 µg/ml, COS-7 supernatant at 5 ng/ml antibody, HRP-labelled secondary antibody, OD450/630 nm.
Experiment [7] deals with T2, TrkA-IgG. Description: ELISA, TrkA-IgG coated at 1 µg/ml, antibody at 5 ng/ml, HRP-labelled secondary antibody, OD450/630 nm.

B1: BXhVH3VL2 (antibody, human IgG1, V domains shown)
VH: EVQLLESGGGLVQPGGSLRLSCAASGFTFSTYTMSWVRQAPGKRLEWVAYISKGGGSTYYPDTVKGRFTISRDNSKNTLYLQMNSLRAEDTAVYYCARGAMYGNDFFYPMDYWGQGTTVTVSS
VL: EIVLTQSPATLSLSPGERATLSCSASSSVSYMHWYQQKPGQSPRLLIYTTSNLASGIPSRFSGSGSGTDFTLTISSLEPEDAADYYCHQWSSYPWTFGQGTKLEIK
notes: Human IgG1 constant regions (IgG1 expression vectors); COS-7 supernatant; also called hVH3/hVL2
Regarding B1, the binding result (in experiment [1]; with TrkA-IgG [2]) was “binds” in each case.

B2: BXhVH3VL3 (antibody, human IgG1, V domains shown)
VH: B1 VH
VL: B1 VL with E1Q, D69F, F70Y, A82F, D84V, Q99G
notes: Human IgG1 constant regions (IgG1 expression vectors); also called hVH3/hVL3
Take B2: the binding entry (in experiment [1]; in experiment [3]; in experiment [4]; in experiment [5]; with TrkA-IgG [6]) was “binds” throughout.

B3: HuMNACWO (antibody, V domains shown)
VH: B1 VH with V37A, R44G, T91S, Y102F, Y108F, Y112R, T118L
VL: DIVLTQSPSSLSASVGDRVTITCSASSSVSYMHWYQQKPGQAPKLLIYTTSNLASGVPSRFSGSGSGTDYTLTISSLQPEDVATYYCHQWSSYPWTFGGGTKVEIK
notes: Prior art humanised antibody; also called humanised antibody MNAC13 disclosed in WO 05/061540; HuVHWO/HuVLWO
As for B3, the binding entry in the experiment with TrkA-IgG [7] was “binds”.

B4: BXhVH3VL4 (antibody, human IgG1, V domains shown)
VH: B1 VH
VL: B1 VL with E1Q, Q99G
notes: Human IgG1 constant regions (IgG1 expression vectors); COS-7 supernatant; also called hVH3/hVL4
In the case of B4, the binding entry (in experiment [1]; in the experiment with TrkA-IgG [2]) was “binds” each time.

B5: BXhVH3VL5 (antibody, human IgG1, V domains shown)
VH: B1 VH
VL: B1 VL with E1Q, F70Y
notes: Human IgG1 constant regions (IgG1 expression vectors); COS-7 supernatant; also called hVH3/hVL5
Turning to B5, the binding entry (in experiment [1]; with TrkA-IgG [2]) was “binds” throughout.

B6: BXhVH3VL6 (antibody, human IgG1, V domains shown)
VH: B1 VH
VL: B1 VL with R18E, D69F, F70Y, Q99G
notes: Human IgG1 constant regions (IgG1 expression vectors); COS-7 supernatant; also called hVH3/hVL6
For the molecule B6, the binding result (in experiment [1]; in the experiment with TrkA-IgG [2]) was “binds” throughout.

B7: BXhVH3VL8 (antibody, human IgG1, V domains shown)
VH: B1 VH
VL: B1 VL with E1Q, R18E, P39S, Q41T, D69F, F70Y, Q99G
notes: Human IgG1 constant regions (IgG1 expression vectors); COS-7 supernatant; also called hVH3/hVL8
Turning to B7, the binding result (in experiment [1]; with TrkA-IgG [2]) was “binds” in each case.

B8: BXhVH3VL7 (antibody, human IgG1, V domains shown)
VH: B1 VH
VL: B1 VL with E1Q, D69F, F70Y, Q99G
notes: Human IgG1 constant regions (IgG1 expression vectors); COS-7 supernatant; also called hVH3/hVL7
Consider B8, for which the binding result (in experiment [1]; with TrkA-IgG [2]) was “binds” each time.

These data come from patent US20110145941A1 (LAY LINE GENOMICS S P A, published 2011).
